Test results as given in PMC6886295, “The iron–sulfur‐containing HypC‐HypD scaffold complex of the [NiFe]‐hydrogenase maturation machinery is an ATPase” (FEBS Open Bio, 2019).
Where a chain is given by its changes, count along the chain named. No constants are given. Whether binding was seen depends on the method and setting. Some entries that bind do so weakly or less than the wild type. Sequences can lack the tags named with a protein. One block for each binder: values may come before it.

Legend:
Test in all cases: co-purification (Strep-tag affinity purification); Strep-tagged HypC or HybG co-produced with HypD in E. coli BEF314 or MC4100; complexes purified under anaerobic conditions by the Strep-tag as described in ref. 8
[1] = biological target: T1, HypCC2A (Escherichia coli) (UniProt P0AAM3)
T1 sequence: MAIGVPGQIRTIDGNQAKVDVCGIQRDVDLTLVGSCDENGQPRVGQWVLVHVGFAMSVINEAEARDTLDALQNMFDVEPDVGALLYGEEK

[2] = biological target: T2, HybG_(strep) (Escherichia coli) (UniProt P0AAM7)
T2 sequence: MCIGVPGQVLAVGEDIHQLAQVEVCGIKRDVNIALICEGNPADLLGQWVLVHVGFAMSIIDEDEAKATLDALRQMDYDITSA

[3] = biological target: T3, HypC_(strep) (Escherichia coli) (UniProt P0AAM3)
T3 sequence: T1 sequence with A2C

binding [1]: binds
binding [2]: binds
binding [3]: binds
B1: HypD (untagged, co-purified with Strep-tagged HypC or HybG) (protein, UniProt P24192 1-373)
chain: MRFVDEYRAPEQVMQLIEHLRERASHLSYTAERPLRIMEVCGGHTHAIFKFGLDQLLPENVEFIHGPGCPVCVLPMGRIDTCVEIASHPEVIFCTFGDAMRVPGKQGSLLQAKARGADVRIVYSPMDALKLAQENPTRKVVFFGLGFETTMPTTAITLQQAKARDVQNFYFFCQHITLIPTLRSLLEQPDNGIDAFLAPGHVSMVIGTDAYNFIASDFHRPLVVAGFEPLDLLQGVVMLVQQKIAAHSKVENQYRRVVPDAGNLLAQQAIADVFCVNGDSEWRGLGVIESSGVHLTPDYQRFDAEAHFRPAPQQVCDDPRARCGEVLTGKCKPHQCPLFGNTCNPQTAFGALMVSSEGACAAWYQYRQQESEA

binding [2]: binds
binding [3]: binds
B2: HypE (protein, UniProt P24193 1-336)
chain: MNNIQLAHGSGGQAMQQLINSLFMEAFANPWLAEQEDQARLDLAQLVAEGDRLAFSTDSYVIDPLFFPGGNIGKLAICGTANDVAVSGAIPRYLSCGFILEEGLPMETLKAVVTSMAETARAAGIAIVTGDTKVVQRGAVDKLFINTAGMGAIPANIHWGAQTLTAGDVLLVSGTLGDHGATILNLREQLGLDGELVSDCAVLTPLIQTLRDIPGVKALRDATRGGVNAVVHEFAAACGCGIELSEAALPVKPAVRGVCELLGLDALNFANEGKLVIAVERNAAEQVLAALHSHPLGKDAALIGEVVERKGVRLAGLYGVKRTLDLPHAEPLPRIC
